Here are results for one compound from patent EP4559923A1, “ANTIHISTAMINE COMPOUND, AND PREPARATION METHOD THEREFOR AND USE THEREOF” (HC Synthetic Pharmaceutical Co., Ltd., priority 2022, dated 2024).

This assay deals with isolated ileal smooth muscle. Briefly: Muscle tone of isolated ileal smooth muscle of guinea pigs, compound alone. The following applies: Table 3, no histamine, X±s, n = 8. The protocol:
The guinea pig was knocked unconscious with a wooden stick, and the abdomen was immediately dissected to separate the ileum about 15 cm in length. The contents of the intestinal segment were flushed with Tyrode's solution and placed in Tyrode's solution at a constant temperature of 37°C for later use, and oxygen was supplied simultaneously. The experimental intestinal tract (1 cm in length) was cut and placed into 20 ml of Tyrode's solution at a constant temperature of 37°C with a continuous oxygen supply. One end of the intestine was fixed on the ventilation hook and the other end was connected to the muscle tone transducer and led to the computer interface. The muscle tone value of the ileal smooth muscle was recorded with a BL system. The experiment was carried out after the intestinal segment contraction became stable.
After the ileum contraction curve stabilized, the tone values before adding the drug were recorded, then the drug or DMSO was added, and the average tone value of the ileum contraction curve at that point was recorded 5 minutes later. The operation was repeated 8 times. The antispasmodic percentage was calculated according to the following formula. Antispasmodic percentage =; (Tone value before adding subject compound−Tone value after adding subject compound)/(Tone value before adding subject compound) × 100% [formula]

For the compound `Clc1ccc2c(c1)CCc1cccnc1C2=C1CCNCC1` [Desloratadine, desloratadine, reference compound], the “Smooth muscle tone (g) After administration” value (5 minutes after adding the drug) was found to be 1.33 ± 0.28 g. In addition, the “Antispasmodic percentage (%)” value (relative to tone before adding compound, 5 min) is 22.94±9.21%.
